# Cell number after 72 h of treatment

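Human melanoma cells were exposed to a pair of drugs for 72 h in 1,536-well plates and read by automated microscopy after fixing and staining. Each value is the count of nuclei relative to DMSO-treated wells, in %, so that 100 equals the control. Concentrations were fixed for each drug; these are the lower of two levels, a fifth of the higher. The file gives one value for each pair and line, without errors, so small differences may be noise.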
An unselected part of the screen is shown.
An entry leaves out what has no value listed here.
A dash means that no value is listed here.

Every entry is a combination with U73122 at 0.4 µM: COc1ccc2c(c1)CCC1C2CCC2(C)C(NCCCCCCN3C(=O)C=CC3=O)CCC12 (stereo not shown)

Partner: C=C(c1ccc(C(=O)O)cc1)c1cc2c(cc1C)C(C)(C)CCC2(C)C at 2 µM
A2058: 98.6
501mel: 91.4
A101D: 111
C32: 93.9

Partner: O=C(O)c1ccc(-c2c[nH]c3ncc(-c4ccccc4)cc23)cc1C1CCCC1 at 0.16 µM
A2058: 91.1
A375: 98.7
501mel: 83.8
A101D: 99.3
C32: 91.9

Partner: N#CC[C@H](C1CCCC1)n1cc(-c2ncnc3[nH]ccc23)cn1 at 1 µM
A2058: 80.8
501mel: 95.7
A101D: 117
C32: 99.0

Partner: CN1CCN(c2ccc3nc(-c4c(N)c5c(F)cccc5[nH]c4=O)[nH]c3c2)CC1 at 0.1 µM
A2058: 92.7
501mel: 106
A101D: 100
C32: 90.7

Partner: OCc1c[nH]c2ccccc12 at 0.8 µM
A2058: 94.8
501mel: 80.2
A101D: 104
C32: 97.2

Partner: CCN(CC)CCCCNc1ncc2cc(-c3cc(OC)cc(OC)c3)c(NC(=O)NC(C)(C)C)nc2n1 at 0.1 µM
A2058: 91.4
A375: 84.6
501mel: 87.2
A101D: 86.1
C32: 91.1

Partner: C[C@@H](Oc1cc(-c2cnn(C3CCNCC3)c2)cnc1N)c1c(Cl)ccc(F)c1Cl at 0.2 µM
A2058: 91.2
501mel: 114
A101D: 97.3
C32: 86.8

Partner: COC(=O)c1sccc1S(=O)(=O)Nc1ccc(Nc2ccccc2)cc1OC at 1 µM
A2058: 106
A375: 97.3
501mel: 118
A101D: 110
C32: 96.3

Partner: Cn1cc(C2=C(c3cn(C4CCN(Cc5ccccn5)CC4)c4ccccc34)C(=O)NC2=O)c2ccccc21 at 0.8 µM
A2058: 80.1
501mel: 99.9
A101D: 89.3
C32: 96.1

Partner: N#Cc1c(O)c2c(-c3ccc(-c4ccccc4O)cc3)csc2[nH]c1=O at 2 µM
A2058: 101
A375: 88.9
501mel: 86.4
A101D: 107
C32: 118

Partner: COc1cc(Nc2ncc(F)c(Nc3ccc4c(n3)NC(=O)C(C)(C)O4)n2)cc(OC)c1OC at 0.4 µM
A2058: 85.4
A375: 72.9
501mel: 71.9
A101D: 87.6
C32: 94.9

Partner: Oc1cc(-c2nc(-c3ccccc3)[nH]c2-c2ccncc2)ccc1Cl at 0.2 µM
A2058: 88.3
A375: 82.1
501mel: 69.8
A101D: 92.9
C32: 82.2

Partner: O=C(O)C(=O)Nc1sc2c(c1C(=O)O)CCNC2 at 1.67 µM
A2058: 94.4
A375: 49.4
501mel: 111
A101D: 95.3
C32: 108

Partner: Cc1cc(Nc2cc(N3CCN(C)CC3)nc(Sc3ccc(NC(=O)C4CC4)cc3)n2)n[nH]1 at 0.006 µM
A2058: 88.4
501mel: 120
A101D: 91.7
C32: 101

Partner: C[C@@H]1CCN(C(=O)CC#N)C[C@@H]1N(C)c1ncnc2[nH]ccc12 at 1 µM
A2058: 114
A375: 99.2
501mel: 86.2
A101D: 90.1
C32: 80.0

Partner: CCCCCCCCCCCCCCCCCCOP(=O)([O-])OC1CC[N+](C)(C)CC1 at 0.4 µM
A2058: 72.2
501mel: 94.3
A101D: 99.7
C32: 94.2

Partner: O=C(O)[C@@H]1[O][Sb](=[O])([O][Sb]2(=[O])[O][C@H]([C@H](O)CO)[C@H](O)[C@H](C(=O)O)[O]2)[O][C@H]([C@H](O)CO)[C@@H]1O (stereo partly shown) at 2 µM
A2058: 103
501mel: 90.2
A101D: 103
C32: 112

Partner: CC1(C)CCC(c2ccc(Cl)cc2)=C(CN2CCN(c3ccc(C(=O)NS(=O)(=O)c4ccc(N[C@H](CCN5CCOCC5)CSc5ccccc5)c(S(=O)(=O)C(F)(F)F)c4)cc3)CC2)C1 at 0.4 µM
A2058: 81.3
A101D: 68.1
C32: 56.7

Partner: O=C1NC(=O)/C(=C/c2ccc(-c3ccc(F)cc3O)o2)S1 at 1 µM
A2058: 99.1
A375: 65.0
501mel: 90.3
A101D: 85.4
C32: 94.8

Partner: Cc1cc([N+](=O)[O-])ccc1NS(=O)(=O)c1cc(Cl)ccc1Cl at 1 µM
A2058: 65.4
A375: 48.1
501mel: 84.8
A101D: 70.3
C32: 79.1

Partner: O=c1[nH]nc(Sc2ncc([N+](=O)[O-])s2)n1-c1ccc2c(c1)OCCO2 at 0.2 µM
A2058: 92.9
501mel: 102
A101D: 94.1
C32: 104

Partner: NC(=O)c1ccc(N(C(N)=O)c2c(F)cccc2F)nc1-c1ccc(F)cc1F at 0.4 µM
A2058: 83.9
501mel: 80.3
A101D: 93.4
C32: 90.0

Partner: C[C@]12O[C@H](C[C@]1(O)CO)n1c3ccccc3c3c4c(c5c6ccccc6n2c5c31)CNC4=O at 0.004 µM
A2058: 89.8
501mel: 62.6
A101D: 97.0
C32: 88.1

Partner: CC[C@]1(O)C[C@H]2CN(CCc3c([nH]c4ccccc34)[C@@](C(=O)OC)(c3cc4c(cc3OC)N(C=O)[C@H]3[C@@](O)(C(=O)OC)[C@H](OC(C)=O)[C@]5(CC)C=CCN6CC[C@]43[C@@H]65)C2)C1 at 0.0001 µM
A2058: 71.7
501mel: 92.6
A101D: 73.9
C32: 104

Partner: N.N.[Cl][Pt][Cl] at 1.6 µM
A2058: 83.1
501mel: 104
A101D: 92.8
C32: 88.5

Partner: O=C(Nc1cc(C(F)(F)F)cc(C(F)(F)F)c1)c1cc(Cl)ccc1O at 0.016 µM
A2058: 89.2
A101D: 101
C32: 112

Partner: CCCCCCCCCCCC1=C(O)C(=O)C=C(O)C1=O at 1.2 µM
A2058: 99.0
A375: 115
501mel: 108
A101D: 105
C32: 86.3

Partner: COc1cc2ncnc(Nc3ccc(Oc4ccccc4)cc3)c2cc1OC at 2 µM
A2058: 95.5
A375: 70.9
501mel: 97.3
A101D: 95.5
C32: 74.4

Some entries from above, unchanged:

| Partner | A2058 | A375 | 501mel | A101D | C32 |
|---|---|---|---|---|---|
| COc1cc(Nc2ncc(F)c(Nc3ccc4c(n3)NC(=O)C(C)(C)O4)n2)cc(OC)c1OC at 0.4 µM | 85.4 | 72.9 | 71.9 | 87.6 | 94.9 |
| N.N.[Cl][Pt][Cl] at 1.6 µM | 83.1 | - | 104 | 92.8 | 88.5 |

Values as published with doi:10.1371/journal.pone.0140310, rounded.